# About 1,700 (0.47%) of roughly 360,000 compounds were called active. The inconclusive results got no clear call from the source; some entries with a clear call stand among them for comparison. Calls follow the shape of the dose curve; as a rule, active = well fitted inhibition curve with a large enough effect; inconclusive = small, poorly fitted or top-dose-only effect; inactive = no such curve, though single readings can be large or run the other way. Where the call is inconclusive, the potency comes from a doubtful curve fit.
# Amino acid sequences for entries named in this document (tags omitted).
# UniProt Q14191, whole entry, looked up: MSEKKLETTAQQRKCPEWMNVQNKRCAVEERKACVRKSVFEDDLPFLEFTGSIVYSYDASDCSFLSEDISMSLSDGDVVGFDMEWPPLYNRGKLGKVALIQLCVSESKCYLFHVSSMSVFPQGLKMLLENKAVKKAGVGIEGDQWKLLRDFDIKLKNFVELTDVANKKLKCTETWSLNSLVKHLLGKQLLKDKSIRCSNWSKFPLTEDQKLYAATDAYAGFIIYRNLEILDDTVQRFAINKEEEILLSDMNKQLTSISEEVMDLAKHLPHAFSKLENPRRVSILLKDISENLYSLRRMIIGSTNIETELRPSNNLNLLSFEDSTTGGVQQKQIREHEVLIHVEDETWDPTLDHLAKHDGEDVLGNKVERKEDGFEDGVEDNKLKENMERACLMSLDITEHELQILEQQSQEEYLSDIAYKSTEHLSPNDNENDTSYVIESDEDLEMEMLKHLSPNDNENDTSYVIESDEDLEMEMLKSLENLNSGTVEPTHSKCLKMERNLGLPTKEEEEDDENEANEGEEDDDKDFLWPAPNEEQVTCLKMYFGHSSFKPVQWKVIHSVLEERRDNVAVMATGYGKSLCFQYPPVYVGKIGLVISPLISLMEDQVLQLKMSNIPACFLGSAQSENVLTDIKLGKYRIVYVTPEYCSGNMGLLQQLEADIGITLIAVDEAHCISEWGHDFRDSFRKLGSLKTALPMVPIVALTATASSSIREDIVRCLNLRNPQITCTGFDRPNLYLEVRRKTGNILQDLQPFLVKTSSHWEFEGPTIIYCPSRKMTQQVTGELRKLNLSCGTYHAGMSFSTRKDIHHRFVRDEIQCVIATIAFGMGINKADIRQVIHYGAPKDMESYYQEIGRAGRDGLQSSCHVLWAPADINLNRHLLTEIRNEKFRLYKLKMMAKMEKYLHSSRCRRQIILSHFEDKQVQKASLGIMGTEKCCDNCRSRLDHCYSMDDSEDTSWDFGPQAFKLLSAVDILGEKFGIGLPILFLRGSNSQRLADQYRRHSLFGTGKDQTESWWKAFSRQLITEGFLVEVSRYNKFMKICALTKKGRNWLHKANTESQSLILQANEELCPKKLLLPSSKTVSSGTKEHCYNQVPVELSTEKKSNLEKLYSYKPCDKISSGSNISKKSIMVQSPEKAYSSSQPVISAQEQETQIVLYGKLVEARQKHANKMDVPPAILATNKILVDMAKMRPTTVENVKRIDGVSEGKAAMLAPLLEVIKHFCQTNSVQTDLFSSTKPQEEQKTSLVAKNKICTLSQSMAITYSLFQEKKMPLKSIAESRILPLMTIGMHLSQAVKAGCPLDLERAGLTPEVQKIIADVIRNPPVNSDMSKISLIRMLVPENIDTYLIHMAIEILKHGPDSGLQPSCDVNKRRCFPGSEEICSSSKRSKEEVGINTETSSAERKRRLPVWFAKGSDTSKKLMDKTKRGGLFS
# Target: Bifunctional 3'-5' exonuclease/ATP-dependent helicase WRN (Homo sapiens) (UniProt Q14191)
# Experiment: qHTS for Inhibitors of WRN Helicase; also: nearly all actives have a fitted effect of over 55% in size
# Conditions: WRN helicase unwinding, fluorescent forked duplex, kinetic; activity change, negative = inhibition: at 114 µM (top of the series) unless noted
# Procedure, shortened: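 WRN at 20 nM final preincubated with compound 15 min at room temperature; reaction started with 100 nM fluorophore/quencher forked duplex oligonucleotide and 2 mM ATP final. Unwinding followed kinetically by red fluorescence (ex 525, em 598 nm).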
# % is scaled to controls: 0 for no effect and ±100 for the full control effect; potency is read from the fitted curve at half-maximal effect.
SMILES,Potency,"activity change, negative = inhibition"
O=C1CCC([N+](=O)[O-])C(c2cccc([N+](=O)[O-])c2)N1 (centres undefined),inactive,
CCCC1Nc2ccc(C(=O)O)cc2C2C=CCC12 (centres undefined),"inconclusive: 25.1 µM [inhibitor, single point]",
O=C(NC(=S)Nc1cccc(S(=O)(=O)NC2=NCCC2)c1)c1cc(-c2ccco2)nc2ccccc12,"inconclusive: 56.2 µM [inhibitor, partial curve]",
COc1ccccc1OCCOc1ccc(/C=C2/C(=N)N3OC(C)=CC3=NC2=O)cc1OC,"inconclusive: 18.9 µM [inhibitor, partial curve]",
Cn1cc(Cl)c(C(=O)NNC(=S)NCc2ccco2)n1,inactive,
COc1cc2c(=O)n(CC3CCCO3)c(=O)n(CC(=O)Nc3cccc(Cl)c3)c2cc1OC (centres undefined),inactive,
Cc1nc2c(cc1C(=O)N/N=C/c1ccc(O)c(O)c1)c(=O)n(C)c(=O)n2C,"inconclusive: 44.7 µM [inhibitor, partial curve]",
Cn1cccc1C(=O)NC(=O)CSc1cccc[n+]1[O-],inactive,
Clc1ccc(-n2nnnc2Sc2ncnc3sccc23)cc1,inactive,
O=C(O)c1ccc(NS(=O)(=O)c2cccc(S(=O)(=O)c3ccc(Cl)c(Cl)c3)c2)cc1,"inconclusive: 11.2 µM [inhibitor, partial curve]",
COc1cccc(C(=O)N2CCC(n3nccc3NC(=O)C(OC)c3ccccc3)CC2)c1 (centres undefined),"inconclusive: 79.4 µM [inhibitor, single point]",
CCOc1cc(C(c2c(O)nc(SC)[nH]c2=O)c2c(O)nc(SC)[nH]c2=O)ccc1O,"inconclusive: 39.8 µM [inhibitor, partial curve]",
COc1ccc(NC(=O)CCOc2cc(C)ccc2C)cc1S(=O)(=O)N1CCCCC1,inactive,
O=C(NCCc1c[nH]c2ccccc12)c1cccc(S(=O)(=O)Nc2ccccc2Cl)c1,"inconclusive: 28.2 µM [inhibitor, full curve]",
COc1ccccc1N1CCN(C(=O)N2CCOCC2)CC1,inactive,
O=c1[nH]c(/C=C\c2cccc(Cl)c2)nc(O)c1[N+](=O)[O-],inactive,
COC(=O)c1sc(NC(=O)c2cc(-c3ccccc3)nc3ccccc23)c(C#N)c1C,"inconclusive: 56.2 µM [inhibitor, partial curve]",
CCC(C)[C@H](NC(=O)C1CC(=O)N(c2ccc(OC)cc2)C1)C(=O)NC1CCCC1 (some centres undefined),inactive,
O=C1CCn2c1c(O)c1ccccc1c2=O,inactive,
Cc1ccc(C(=O)CC2(O)C(=O)Nc3ccccc32)s1 (centres undefined),inactive,
COc1ccc(C(c2c(C)[nH]n(-c3ccccc3)c2=O)c2c(C)[nH]n(-c3ccccc3)c2=O)cc1OC,"inconclusive: 44.7 µM [inhibitor, full curve, poor fit]",
CN(C)CCCn1c(=S)[nH]c2sc3c(c2c1=O)CCCC3,"inconclusive: 79.4 µM [inhibitor, single point]",
CN(C)c1ccc(-c2nc3ccccn3c2/N=C/c2ccc(Br)cc2)cc1,"inconclusive: 25.1 µM [inhibitor, single point]",

# Nothing new here: an excerpt of the list.
SMILES,Potency,"activity change, negative = inhibition"
O=C(NC(=S)Nc1cccc(S(=O)(=O)NC2=NCCC2)c1)c1cc(-c2ccco2)nc2ccccc12,"inconclusive: 56.2 µM [inhibitor, partial curve]",
COc1ccccc1OCCOc1ccc(/C=C2/C(=N)N3OC(C)=CC3=NC2=O)cc1OC,"inconclusive: 18.9 µM [inhibitor, partial curve]",
Cn1cc(Cl)c(C(=O)NNC(=S)NCc2ccco2)n1,inactive,

# Following part.

SMILES,Potency,"activity change, negative = inhibition"
C(=C\c1ccco1)/C1=NN(c2ccccc2)C(c2ccco2)C1 (centres undefined),"inconclusive: 31.6 µM [inhibitor, partial curve]",
CN1c2ccsc2/C(=N/Nc2ccc(F)cc2)CS1(=O)=O,"inconclusive: 20 µM [inhibitor, partial curve]",
COc1ccc(-n2c(O)c(/C=N/NS(=O)(=O)c3cc(C)ccc3C)c3ccccc3c2=O)cc1OC,active: 79.4 µM,
Cc1c(C2=CCN(S(=O)(=O)c3ccc(Br)cc3)CC2)c2ccccc2n1C,"inconclusive: 39.8 µM [inhibitor, single point]",
O=C1/C(=C/C=C/c2ccco2)SC(=S)N1c1ccc(O)cc1,active: 31.6 µM,
Cc1cc(C(=O)NNC(=O)/C=C/c2ccco2)c(C)o1,"inconclusive: 79.4 µM [inhibitor, single point]",
O=C1CSC(=S)N1N=Cc1c(O)ccc2ccccc12,"inconclusive: 15.8 µM [inhibitor, full curve]",
COc1ccc(CCNS(=O)(=O)c2ccc(C(=O)NCc3ccco3)cc2)cc1OC,,inconclusive: -96.1% [inhibitor] [at 57.1 µM]
CC(C)CCNC(=O)c1cc(-c2ccco2)nc2ccccc12,inactive,
COc1ccc2c(CC(=O)NC3CCCc4ccccc43)coc2c1 (centres undefined),"inconclusive: 25.1 µM [inhibitor, single point]",
C[C@@H]1CC=C[C@H]2[C@H]1C(=O)N(Cc1ccccc1)[C@H]2c1ccc(-c2cc3ccccc3s2)cc1F,inactive,
CN1C(=O)/C(=C/c2ccc(OCc3ccc(C(=O)O)cc3)c(Cl)c2)NC1=S,"inconclusive: 70.8 µM [inhibitor, single point]",
COc1cccc(-n2c(=O)n(Cc3ccccc3)c(=O)c3[nH]cnc32)c1,"inconclusive: 70.8 µM [inhibitor, partial curve, poor fit]",
COc1ccc(-n2c(=O)c3ccccc3c3ccccc3c2=O)cc1,"inconclusive: 25.1 µM [inhibitor, partial curve]",
O=S(=O)(Nc1nc2ccccc2nc1Nc1ccc2c(c1)OCCO2)c1cccs1,"inconclusive: 56.2 µM [inhibitor, partial curve]",
CNS(=O)(=O)c1cccc(C(=O)OCC(=O)c2ccc3[nH]c(=O)[nH]c3c2)c1,"inconclusive: 56.2 µM [inhibitor, partial curve, poor fit]",
COc1ccc(-c2nc3ccc(N4CCCC4)cc3c(=O)[nH]2)cc1OC,"inconclusive: 79.4 µM [inhibitor, partial curve]",
N#CCC(=O)c1sccc1-n1cccc1,"inconclusive: 50.1 µM [inhibitor, partial curve]",
O=C(CSc1nnc(CNC(=O)c2c(F)cccc2F)o1)c1ccc(Cl)cc1,inactive,
CC1CCC2(CC1)NC(=O)N(CC(=O)Nc1sc3c(c1C(N)=O)CCC3)C2=O (centres undefined),active: 50.1 µM,
COc1ccc(NS(=O)(=O)c2cc(NC(=O)[C@H](C)NC(N)=O)ccc2N2CCCC2)cc1,"inconclusive: 44.7 µM [inhibitor, full curve, poor fit]",
Cc1cccc(NS(=O)(=O)c2ccc(C)c(C(=O)NCc3ccccn3)c2)c1,inactive,
COc1ccc(S(=O)(=O)N2CCc3ccccc32)cc1C(=O)NCc1ccco1,"inconclusive: 39.8 µM [inhibitor, full curve, poor fit]",

# Random excerpt: three compounds from above.
SMILES,Potency,"activity change, negative = inhibition"
COc1ccc(-c2nc3ccc(N4CCCC4)cc3c(=O)[nH]2)cc1OC,"inconclusive: 79.4 µM [inhibitor, partial curve]",
O=C1/C(=C/C=C/c2ccco2)SC(=S)N1c1ccc(O)cc1,active: 31.6 µM,
CC(C)CCNC(=O)c1cc(-c2ccco2)nc2ccccc12,inactive,

# Next results:

SMILES,Potency,"activity change, negative = inhibition"
CC[n+]1c(/C=C/c2ccc(N(C)C)cc2)ccc2ccccc21,"inconclusive: 28.2 µM [inhibitor, single point]",
COc1ccc(-n2nc3c(c2NC(=O)COc2cccc(OC)c2)CS(=O)(=O)C3)cc1,"inconclusive: 70.8 µM [inhibitor, single point]",
C/C(=N\Nc1ccc(Cl)c(C(=O)O)c1)c1ccc[nH]1,"inconclusive: 50.1 µM [inhibitor, partial curve]",
Cc1ccc(-c2[nH]c(-c3ccc(C(=O)O)cc3)nc2-c2ccccc2)cc1,"inconclusive: 50.1 µM [inhibitor, partial curve]",
COc1ccc(CCN(C)C2CCCN(C(=O)Cn3cnnn3)C2)cc1OC (centres undefined),"inconclusive: 79.4 µM [inhibitor, single point]",
Fc1cccc(COc2ccccc2CNc2ccccc2)c1,"inconclusive: 31.6 µM [inhibitor, single point]",
Cc1ccc(S(=O)(=O)NN2C(=O)/C(=C/c3ccc(F)cc3)SC2=S)cc1,"inconclusive: 8.91 µM [inhibitor, full curve]",
CC1=Nc2ccccc2/C1=C/c1sc(=S)n(-c2cccc(C(=O)O)c2)c1O,"inconclusive: 89.1 µM [inhibitor, partial curve]",
CCOC(=O)C(=O)Cc1cccnn1,active: 50.1 µM,
O=C1NC(=O)/C(=C/c2ccc(N3CCOCC3)o2)N1,"inconclusive: 39.8 µM [inhibitor, single point]",
O=C(O)C(c1ccccc1)N1C(=O)/C(=C\c2ccc(O)c(O)c2)SC1=S (centres undefined),active: 31.6 µM,
COc1cc2c(cc1NC(=O)CSc1nc3ccccc3[nH]1)oc1ccccc12,"inconclusive: 21.2 µM [inhibitor, partial curve]",
COCCCNC(=O)c1cc(C(=O)c2c(-c3c(Cl)cccc3Cl)noc2C)c[nH]1,inactive,
Cc1ccc(/C=N/Nc2cccc(C(=O)O)c2)s1,"inconclusive: 39.8 µM [inhibitor, single point]",
CSc1nc(-c2ccco2)nn1C(=O)c1cccs1,inactive,
CC(=O)Oc1ccc(-c2csc(Nc3cccc(C)n3)n2)cc1,"inconclusive: 89.1 µM [inhibitor, single point]",
Cc1ccc(N2C(=O)/C(=C/c3ccco3)SC2=S)cc1,inactive,
Oc1c(C=NCc2ccccc2)sc2ccccc12,inactive,
Cc1ccn2c(=O)nc(SCC(=O)NCc3ccccc3)nc2c1,"inconclusive: 70.8 µM [inhibitor, single point]",
CC(=O)N(c1ccccc1)C1CCCC1,"inconclusive: 10 µM [inhibitor, partial curve]",
N#CC1(c2c(O)nc3n(c2=O)CCCS3)CCCCC1,"inconclusive: 50.1 µM [inhibitor, partial curve]",
O=C(Nc1cc(S(=O)(=O)Nc2ccc(Cl)cc2)ccc1O)c1ccc(F)cc1F,"inconclusive: 56.2 µM [inhibitor, partial curve]",
C#CCOCCOCCOCCNc1nc(N2CCN(C(=O)CCCCCCCCCCNC(=O)[C@H](CCCCN)n3cc(C)nn3)CC2)nc(N2CCN(C(=O)CCCCCCCCCCNC(=O)[C@H](CO)n3cc(CCCSC)nn3)CC2)n1,active: 50.1 µM,

# — PubChem BioAssay AID651768 (National Center for Advancing Translational Sciences (NCATS), 2012)
